Laboratory results reported in publication PMC5596555.

By UniProt entry, the sequences of proteins in these tests, tags left out. Where a name states a change or a piece, a line headed by the entry shows the natural chain unless it says otherwise.
UniProt Q9HCE7: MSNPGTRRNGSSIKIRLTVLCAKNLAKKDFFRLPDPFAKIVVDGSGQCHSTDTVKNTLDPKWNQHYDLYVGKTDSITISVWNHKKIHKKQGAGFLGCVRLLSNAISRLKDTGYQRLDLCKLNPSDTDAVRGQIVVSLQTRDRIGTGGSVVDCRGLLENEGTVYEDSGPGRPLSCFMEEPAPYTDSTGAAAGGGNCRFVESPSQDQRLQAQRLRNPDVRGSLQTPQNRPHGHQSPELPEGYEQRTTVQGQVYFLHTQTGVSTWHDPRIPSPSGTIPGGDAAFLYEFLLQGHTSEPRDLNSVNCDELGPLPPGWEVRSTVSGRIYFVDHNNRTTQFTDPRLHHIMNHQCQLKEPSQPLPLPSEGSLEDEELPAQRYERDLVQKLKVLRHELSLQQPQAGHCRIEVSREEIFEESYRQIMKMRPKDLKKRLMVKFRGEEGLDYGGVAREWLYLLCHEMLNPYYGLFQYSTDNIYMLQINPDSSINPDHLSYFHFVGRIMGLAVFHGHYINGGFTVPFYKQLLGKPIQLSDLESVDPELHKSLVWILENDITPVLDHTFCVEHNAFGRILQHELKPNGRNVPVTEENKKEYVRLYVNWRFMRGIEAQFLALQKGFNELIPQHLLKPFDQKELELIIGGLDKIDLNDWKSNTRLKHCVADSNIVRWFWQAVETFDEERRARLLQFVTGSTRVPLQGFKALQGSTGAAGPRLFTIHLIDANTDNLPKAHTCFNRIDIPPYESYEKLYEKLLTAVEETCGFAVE
UniProt Q13404: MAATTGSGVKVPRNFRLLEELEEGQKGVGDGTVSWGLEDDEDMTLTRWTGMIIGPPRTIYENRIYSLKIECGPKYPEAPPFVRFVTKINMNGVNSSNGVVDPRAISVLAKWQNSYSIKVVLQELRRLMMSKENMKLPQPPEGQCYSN

Tests used:
[1] = biological target: His6-tagged Smurf1 (UniProt Q9HCE7); assay: pull-down; His6-Smurf1 purified from bacterial cells on nickel agarose beads; incubated with U2OS cell extract overexpressing HA-tagged Uevs overnight at 4 °C; washed five times with lysis buffer; anti-HA blot; only the target purified
[2] = biological target: GST-tagged Uev1A (UniProt Q13404); assay: pull-down; purified GST-tagged Uevs on GST beads; incubated with purified His6-Smurf1 overnight at 4 °C; washed four times with lysis buffer; anti-GST and anti-His6 blots; both purified

HA-tagged Uev1A (from UniProt Q13404-2)
binding [1]: binds

His6-tagged Smurf1 (from UniProt Q9HCE7 1-757) (enzyme)
binding [2]: binds

HA-tagged Uev1A-F38E (from UniProt Q13404-2)
binding [1]: binds

No constants are given. Whether binding was seen depends on the method and setting. A result given as binding can be weak or reduced; the word gives no strength. For part of these data: In cells and extracts the contact can be indirect.
